Laboratory results from publication PMC12192704.

Amino acid sequences for entries named in this document (tags omitted). A change or cut given only in a name is not applied to a line headed by its entry.
UniProt Q9NUM4: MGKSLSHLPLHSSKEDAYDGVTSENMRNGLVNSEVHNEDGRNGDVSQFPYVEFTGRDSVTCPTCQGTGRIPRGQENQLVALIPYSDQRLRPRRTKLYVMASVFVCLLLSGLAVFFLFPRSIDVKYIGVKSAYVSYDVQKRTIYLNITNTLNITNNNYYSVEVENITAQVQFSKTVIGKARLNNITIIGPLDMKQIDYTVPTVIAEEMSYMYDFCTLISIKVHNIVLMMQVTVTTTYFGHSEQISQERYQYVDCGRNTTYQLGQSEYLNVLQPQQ
UniProt P19634: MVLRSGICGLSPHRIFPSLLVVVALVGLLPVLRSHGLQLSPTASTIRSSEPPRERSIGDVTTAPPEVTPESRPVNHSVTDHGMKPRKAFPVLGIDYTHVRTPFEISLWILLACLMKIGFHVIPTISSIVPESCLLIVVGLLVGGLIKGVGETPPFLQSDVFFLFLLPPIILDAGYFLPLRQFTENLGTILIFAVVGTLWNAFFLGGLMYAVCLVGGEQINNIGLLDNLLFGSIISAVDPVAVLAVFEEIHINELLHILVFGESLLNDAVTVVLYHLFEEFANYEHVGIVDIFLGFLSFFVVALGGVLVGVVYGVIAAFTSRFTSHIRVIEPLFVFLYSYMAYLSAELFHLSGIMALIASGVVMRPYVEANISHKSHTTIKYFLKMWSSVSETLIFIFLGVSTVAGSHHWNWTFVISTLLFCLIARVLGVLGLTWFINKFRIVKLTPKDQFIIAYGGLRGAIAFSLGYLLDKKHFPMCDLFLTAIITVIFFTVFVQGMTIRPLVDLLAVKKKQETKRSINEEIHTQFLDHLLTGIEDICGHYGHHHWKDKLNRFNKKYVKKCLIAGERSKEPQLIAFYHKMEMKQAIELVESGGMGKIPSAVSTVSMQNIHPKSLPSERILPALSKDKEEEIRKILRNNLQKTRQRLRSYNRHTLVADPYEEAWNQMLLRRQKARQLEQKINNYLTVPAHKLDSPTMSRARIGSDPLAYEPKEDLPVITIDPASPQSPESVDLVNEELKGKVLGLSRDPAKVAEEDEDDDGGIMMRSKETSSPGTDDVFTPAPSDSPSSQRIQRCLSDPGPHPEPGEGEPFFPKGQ

target: GST-TMEM106B fusion protein (human) (UniProt Q9NUM4); assay: pull-down; purified GST-TMEM106B as bait; fragments and mutants of GFP-NHE1 as prey, Western blot; only the target purified

binding | Substance
binds weakly | NHE1 C538A (from UniProt P19634-1)
binds weakly | NHE1 I537A (from UniProt P19634-1)
binds | NHE1-H540A (from UniProt P19634-1)
binds weakly | NHE1 G539A (from UniProt P19634-1)

target: GST-NHE1 fusion protein (human) (UniProt P19634); assay: pull-down; purified GST-NHE1 as bait; GFP-TMEM106B, its fragments and mutants as prey, Western blot; only the target purified

Substance | binding
TMEM106B F114A (from UniProt Q9NUM4) | binds
TMEM106B-SVFVC101-105AAAAA (from UniProt Q9NUM4) | binds
TMEM106B-LAVFFLF111-117AAAAAAA (from UniProt Q9NUM4) | no binding
TMEM106B-LLLSG106-110AAAAA (from UniProt Q9NUM4) | binds
TMEM106B-LYVMA96-100AAAAA (from UniProt Q9NUM4) | binds
TMEM106B V113A (from UniProt Q9NUM4) | binds

Other lines, results leading:

binding | Substance
binds | TMEM106B L111A (from UniProt Q9NUM4)
binds | TMEM106B L116A (from UniProt Q9NUM4)

No constants are given. Whether binding was seen depends on the method and setting. In cells and extracts the contact can be indirect. A result given as binding can be weak or reduced; the word gives no strength.
